Hit rate of the full screen: of about 360,000 compounds, about 7,500 (2.1%) were called active. The inconclusive results got no clear call from the source; some entries with a clear call stand among them for comparison. Calls follow the shape of the dose curve; as a rule, active = well fitted inhibition curve with a large enough effect; inconclusive = small, poorly fitted or top-dose-only effect, or effect the other way; inactive = flat fitted curve, though single readings scatter. A potency beside an inconclusive call is a rough fit, not a confirmed value.
assay: Nrf2 qHTS screen for inhibitors; settings: A549 ARE-Fluc reporter, luciferase luminescence, 18-24 h; series mostly up to 46 µM; also: nearly all actives have a fitted effect of over 60% in size
How it was run: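 Concentration-response testing used A549 ARE_Fluc cells at 5000 cells/well. Following an 18-24 h compound incubation, viability was read by fluorescence (Ex 405/Em 525) and luciferase output by luminescence.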
Potency is read from the fitted curve at half-maximal effect.

**Q.** With CC(=O)c1cccc(NC(=O)c2cnn(-c3cccc(C)c3)c2-n2cccc2)c1 as the molecule, how does the Potency read?
**A.** Its Potency is inconclusive: 25.9 µM [activator, partial curve].

**Q.** For Cc1ccc(-c2noc(C3CCCN(S(=O)(=O)c4ccc5ccccc5c4)C3)n2)o1 (stereo not drawn), which Potency is on record?
**A.** Its Potency is inconclusive: 29.1 µM [falling, single point].

**Q.** For O=C(NCCN1CCN(c2ccc([N+](=O)[O-])cc2)CC1)NCc1ccccc1, which Potency is on record?
**A.** The Potency was inconclusive: 23.1 µM [falling, single point].

**Q.** For CCc1noc(C)c1C(=O)Nc1nc2ccc(F)cc2s1, which Potency is on record?
**A.** Its Potency is inconclusive: 9.2 µM [activator, partial curve, poor fit].

**Q.** Which Potency does the source give for COc1ccc(C(CNC(=O)c2ccc(-c3cccc(C(F)(F)F)c3)o2)N2CCOCC2)cc1 (stereo not drawn) here?
**A.** Its Potency is inconclusive: 20.6 µM [falling, single point].

**Q.** With COc1ccc(-c2nc(N)ncc2-c2ccccc2)c(O)c1 as the molecule, how does the Potency read?
**A.** Its Potency is “inactive”.

**Q.** With O=S(=O)(c1ccc2c(c1)OCCO2)C1CCN(S(=O)(=O)c2c(F)cccc2F)CC1 as the molecule, how does the Potency read?
**A.** The Potency was “inactive”.

**Q.** For Clc1ccc(-c2cn(-c3ccc(Cl)cc3)c3[n+]2CCCCC3)cc1, which Potency is on record?
**A.** Its Potency is “inactive”.

**Q.** For CC1=C(C(=O)Nc2cc(C(=O)N3CCN(c4cccc(C)c4C)CC3)ccc2C)SCCO1, which Potency is on record?
**A.** Its Potency is inconclusive: 29.1 µM [falling, single point].

**Q.** Which Potency does the source give for CC(C)c1ccccc1OCCNC(=O)c1cncc(Br)c1 here?
**A.** Its Potency is inconclusive: 23.1 µM [falling, single point].

**Q.** For O=C(Cn1c(-c2cccs2)cc2cc(Cl)ccc21)NCc1ccccc1, which Potency is on record?
**A.** Its Potency is inconclusive: 5.8 µM [falling, full curve, poor fit].

**Q.** Which Potency does the source give for CCc1cccc(NC(=O)C2CCCN2S(=O)(=O)c2ccccc2C(F)(F)F)c1 (stereo not drawn) here?
**A.** The Potency was inconclusive: 18.4 µM [falling, partial curve, poor fit].

**Q.** Which Potency does the source give for CCCSc1nc(=O)c2c(n1C)NC(=O)CC2c1cccc(F)c1F (stereo not drawn) here?
**A.** The Potency was “inactive”.

**Q.** For CCc1ccccc1NC(=O)CN(Cc1ccccc1)S(=O)(=O)c1ccc2nc(C)sc2c1, which Potency is on record?
**A.** Its Potency is inconclusive: 25.9 µM [activator, single point].

**Q.** With CSc1ncccc1C(=O)Nc1nc(C(C)(C)C)cs1 as the molecule, how does the Potency read?
**A.** The Potency was inconclusive: 29.1 µM [activator, single point].

**Q.** With CCOC(=O)c1c(NC(=O)CCCOc2ccc(C(C)(C)C)cc2)sc2c1CCC2 as the molecule, how does the Potency read?
**A.** Its Potency is “inactive”.

**Q.** With CCC(OC(=O)C1=Cc2ccccc2OC1)C(=O)NC1CCCC1 (stereo not drawn) as the molecule, how does the Potency read?
**A.** The Potency was inconclusive: 20.6 µM [falling, partial curve].

**Q.** With CC(C)=CC(=O)Nc1nnc(-c2ccccc2)s1 as the molecule, how does the Potency read?
**A.** The Potency was inconclusive: 0.461 µM [activator, full curve, poor fit].

**Q.** With O=S(=O)(Nc1cccc2ncccc12)c1cccs1 as the molecule, how does the Potency read?
**A.** The Potency was active: 20.6 µM.

**Q.** With C/C(=N\N=C(N)N)c1cccc(Cl)c1 as the molecule, how does the Potency read?
**A.** The Potency was inconclusive: 3.26 µM [falling, partial curve, poor fit].

**Q.** Which Potency does the source give for CCOc1cc(C(=O)Nc2ccc3oc(-c4ccc(CC)cc4)nc3c2)cc(OCC)c1OCC here?
**A.** Its Potency is inconclusive: 20.6 µM [falling, single point].

**Q.** For C=CCN1CCN(C(=O)CSc2ccccc2)CC1, which Potency is on record?
**A.** Its Potency is inconclusive: 13 µM [activator, partial curve].

**Q.** For O=C(CCC1CCCN(C(=O)c2ccsc2)C1)NCc1ccc(F)c(F)c1 (stereo not drawn), which Potency is on record?
**A.** Its Potency is inconclusive: 14.6 µM [activator, single point].

**Q.** With N#Cc1c(-c2ccccc2)cc(-c2ccccc2)nc1SCCC(=O)O as the molecule, how does the Potency read?
**A.** The Potency was inconclusive: 29.1 µM [falling, single point].

**Q.** With Cc1ccc(NC(=O)c2ccccc2OCC(=O)c2ccc(F)cc2)cc1 as the molecule, how does the Potency read?
**A.** The Potency was inconclusive: 23.1 µM [activator, single point].

**Q.** For Nc1cccc(C(=O)OCC(=O)Nc2cccc3c2C(=O)c2ccccc2C3=O)c1, which Potency is on record?
**A.** Its Potency is inconclusive: 18.4 µM [falling, single point].

**Q.** With COc1ccc(CCNC(=O)CCc2c(C)nc3cc(-c4ccccc4)nn3c2C)cc1OC as the molecule, how does the Potency read?
**A.** Its Potency is inconclusive: 11.6 µM [falling, partial curve, poor fit].

**Q.** With O=c1[nH]c(NNC(=S)NCc2ccccc2)nc2c1C1(CCCCC1)Cc1ccccc1-2 as the molecule, how does the Potency read?
**A.** Its Potency is inconclusive: 0.0046 µM [falling, full curve, poor fit].

**Q.** For CCOC(=O)c1cc(-c2ccc(F)cc2)n(CCC(=O)NC2CCN(Cc3ccccc3)CC2)c1C, which Potency is on record?
**A.** The Potency was “inactive”.

**Q.** Which Potency does the source give for COc1ccc(C2Nc3ccccc3C(=O)N2NS(=O)(=O)c2ccc(C)cc2)cc1 (stereo not drawn) here?
**A.** Its Potency is inconclusive: 8.2 µM [falling, partial curve, poor fit].

**Q.** With Cc1ccc(NS(=O)(=O)c2cccc(C(=O)N3CCCC(C)C3)c2)cc1 (stereo not drawn) as the molecule, how does the Potency read?
**A.** Its Potency is inconclusive: 14.6 µM [falling, partial curve, poor fit].

**Q.** For O=C(CSc1nnc(-c2ccncc2)n1-c1ccccc1)Nc1ccc(C(=O)O)cc1, which Potency is on record?
**A.** Its Potency is inconclusive: 23.1 µM [activator, partial curve, poor fit].

**Q.** With Cc1ccc(C)c(N2CCN(C(=O)CCS(=O)(=O)c3cccc4nonc34)CC2)c1 as the molecule, how does the Potency read?
**A.** Its Potency is inconclusive: 5.8 µM [falling, full curve, poor fit].

**Q.** Which Potency does the source give for COC(=O)c1sc(-c2ccc(Cl)cc2)cc1NC(=O)/C=C/C(=O)O here?
**A.** The Potency was inconclusive: 23.1 µM [falling, single point].

**Q.** For COc1ccc(OC)c(CCNC(=O)c2cc3c(-c4ccccc4F)nn(C)c3s2)c1, which Potency is on record?
**A.** Its Potency is active: 20.6 µM.

**Q.** Which Potency does the source give for O=C(CCc1ccccc1)NCCC1=CCCCC1 here?
**A.** Its Potency is “inactive”.

**Q.** With O=C1N[C@@H](c2ccccc2)COC(=O)[C@H](Cc2ccc(F)cc2)CC/C=C/C[C@@H]1CC(=O)N(CCO)Cc1ccccc1 as the molecule, how does the Potency read?
**A.** Its Potency is inconclusive: 18.4 µM [falling, single point].

**Q.** With CCCn1c(N)c(C(=O)NS(=O)(=O)c2ccc(C)cc2)c(=O)n(C)c1=O as the molecule, how does the Potency read?
**A.** The Potency was inconclusive: 32.6 µM [falling, single point].

**Q.** For O=C1/C(=C\c2cc([N+](=O)[O-])ccc2O)SC(=S)N1Cc1ccc(Cl)cc1, which Potency is on record?
**A.** The Potency was inconclusive: 16.4 µM [falling, single point].

**Q.** With Cn1c(NC(=O)c2ccccc2)nc2ccccc21 as the molecule, how does the Potency read?
**A.** Its Potency is inconclusive: 0.411 µM [activator, full curve].

**Q.** With COc1cc(C(=S)N2CCOCC2)ccc1OC(=O)Cc1ccc(F)cc1 as the molecule, how does the Potency read?
**A.** The Potency was inconclusive: 16.4 µM [activator, partial curve, poor fit].

**Q.** Which Potency does the source give for Cc1ccccc1NS(=O)(=O)c1ccc(C(=O)N2CCCCCC2)cc1 here?
**A.** The Potency was inconclusive: 11.6 µM [falling, partial curve, poor fit].

**Q.** Which Potency does the source give for Cc1nnc(NC(=O)c2ccccc2Br)s1 here?
**A.** The Potency was inconclusive: 18.4 µM [activator, single point].

**Q.** For CCn1nc(NC(=O)Cc2ccc(OC)cc2)c2cc3cccc(C)c3nc21, which Potency is on record?
**A.** The Potency was inconclusive: 6.51 µM [falling, partial curve, poor fit].

**Q.** With CN(Cc1cccs1)C(=O)CCCc1c[nH]c2ccccc12 as the molecule, how does the Potency read?
**A.** The Potency was inconclusive: 10.3 µM [activator, partial curve, poor fit].

**Q.** Which Potency does the source give for Cc1ccc2c(CC(=O)N3CCN(S(=O)(=O)c4ccccc4)CC3)coc2c1 here?
**A.** Its Potency is inconclusive: 32.6 µM [falling, single point].

**Q.** With N=c1c2c(ccn1Cc1ccccc1)Oc1ccc3ccccc3c1C2c1ccccc1 (stereo not drawn) as the molecule, how does the Potency read?
**A.** Its Potency is active: 5.17 µM.

**Q.** For Cc1c(Cl)cccc1-c1ccc(C(=O)N2CCN(c3ccc([N+](=O)[O-])cc3)CC2)o1, which Potency is on record?
**A.** The Potency was inconclusive: 29.1 µM [falling, single point].

**Q.** Which Potency does the source give for COC1CCN(C(=O)C2CCC(=O)N(C3CCCCCC3)C2)CC1 (stereo not drawn) here?
**A.** Its Potency is inconclusive: 6.51 µM [activator, partial curve, poor fit].

**Q.** With C=CCn1c(O)c(N=NC(=O)CNC(=O)/C=C/c2ccco2)c2ccccc21 as the molecule, how does the Potency read?
**A.** The Potency was “inactive”.

**Q.** Which Potency does the source give for COc1ccc(-n2ncc3c(=O)n(Cc4c(F)cccc4Cl)cnc32)cc1 here?
**A.** The Potency was inconclusive: 1.46 µM [activator, full curve, poor fit].

**Q.** With Nc1c(C(=O)Nc2ccc(Cl)cc2)sc2nc(N3CCOCC3)c3c(c12)CCCC3 as the molecule, how does the Potency read?
**A.** Its Potency is inconclusive: 20.6 µM [falling, partial curve, poor fit].

**Q.** With COCCCNC(=O)CC(c1cc(OC)c(OC)c(OC)c1)N1Cc2ccccc2C1=O (stereo not drawn) as the molecule, how does the Potency read?
**A.** The Potency was “inactive”.

**Q.** Which Potency does the source give for Cc1ccc(-c2nc3ncccc3o2)cc1NC(=O)COc1ccc(C(C)C)cc1 here?
**A.** The Potency was inconclusive: 20.6 µM [falling, single point].

**Q.** With CCOc1cc(/C=N\NC(=O)Cc2ccccc2)ccc1OCC(=O)Nc1ccc(C)c(C)c1 as the molecule, how does the Potency read?
**A.** The Potency was inconclusive: 1.3 µM [falling, partial curve].

**Q.** With O=C(Nc1cccc(-c2nc3cccnc3s2)c1)c1ccc(Cl)nc1 as the molecule, how does the Potency read?
**A.** The Potency was inconclusive: 10.3 µM [activator, partial curve, poor fit].

**Q.** Which Potency does the source give for COc1ccc(NC(=O)c2cc(-c3ccco3)on2)c(OC)c1 here?
**A.** The Potency was inconclusive: 3.26 µM [activator, full curve, poor fit].

**Q.** With Cc1cc(C)c2nc(-c3ccco3)cc(C(=O)O)c2c1 as the molecule, how does the Potency read?
**A.** The Potency was inconclusive: 23.1 µM [activator, partial curve, poor fit].

**Q.** With O=C(Nc1ncc(Cc2cccc([N+](=O)[O-])c2)s1)c1ccco1 as the molecule, how does the Potency read?
**A.** The Potency was inconclusive: 1.03 µM [activator, full curve].

**Q.** Which Potency does the source give for CCc1cc(C(=O)N2CCCC(C(=O)c3ccc(OC)c(F)c3)C2)n(C)n1 (stereo not drawn) here?
**A.** The Potency was inconclusive: 9.2 µM [falling, partial curve, poor fit].

**Q.** Which Potency does the source give for O=C(Nc1ccc2ccccc2c1)Nc1ccc2snnc2c1 here?
**A.** Its Potency is inconclusive: 25.9 µM [falling, single point].

**Q.** Which Potency does the source give for O=c1[nH]c(SCc2nc3ccccc3c(=O)n2-c2ccccc2C(F)(F)F)nc2ccccc12 here?
**A.** Its Potency is “inactive”.

**Q.** With O=[N+]([O-])c1ccccc1S(=O)(=O)N1CCCC(C(F)(F)F)C1 (stereo not drawn) as the molecule, how does the Potency read?
**A.** Its Potency is inconclusive: 14.6 µM [falling, partial curve, poor fit].
